Patent US7432308B2, “Therapeutic compositions for the treatment of a respiratory tract disease” (Universiteit Gent, priority 2001, dated 2008)

System: sputum DNA
Assay: DNAse treatment of sputum: change of sputum viscoelasticity (G′, G″) by rheometry
Parameters: species or system human

B1: rhDNAse I: Recombinant human DNAse I, commercially available under the trade name Pulmozyme, also designated dornase alpha (protein, UniProt P24855 23-282, looked up)
Deoxyribonuclease-1: LKIAAFNIQTFGETKMSNATLVSYIVQILSRYDIALVQEVRDSHLTAVGKLLDNLNQDAPDTYHYVVSEPLGRNSYKERYLFVYRPDQVSAVDSYYYDDGCEPCGNDTFNREPAIVRFFSRFTEVREFAIVPLHAAPGDAVAEIDALYDVYLDVQEKWGLEDVMLMGDFNAGCSYVRPSQWSSIRLWTSPTFQWLIPDSADTTATPTHCAYDRIVVAGMLLRGAVVPDSALPFNFQAAYGLSDQLAQAISDHYPVEVMLK
modifications: dornase alfa
notes: Recombinant human DNAse I, commercially available under the trade name Pulmozyme, also designated dornase alpha
sputa from non-responders not degraded in vitro (seven of the nine sputa): 78% | sputa from clinical responders degraded in vitro (decrease of both G′ and G″ at least 10%) (ten of the thirteen sputa): 77%
